According to PMC4917241:
No constants are given. Whether binding was seen depends on the method and setting. Binding seen in cells or lysates may run through a third protein. Binding can be weak; no strength is given.

Columns and labels:
Experiment in all cases: pull-down; 35S-methionine labeled in vitro translated protein incubated with GST fusion protein on beads in NET-N buffer (50 mM Tris pH 8.0, 150 mM NaCl, 0.5% NP-40) 1.5 h at 4°C; SDS-PAGE, autoradiography; only the target purified
[1] = target: GST-ΔINCENP C4 (aa 855–919) (human)
[2] = target: GST-ΔINCENP C3 (aa 822–919) (human)
[3] = target: GST-ΔINCENP C5 (aa 878–919) (human)
[4] = target: GST-ΔINCENP C6 (aa 822–897) (human)

- binding [1]: binds weakly
- binding [2]: binds
- binding [3]: binds weakly
- binding [4]: binds
B1: 35S-labeled Aurora-C full length (in vitro translated) (enzyme, UniProt Q9UQB9 1-309)
chain: MSSPRAVVQLGKAQPAGEELATANQTAQQPSSPAMRRLTVDDFEIGRPLGKGKFGNVYLARLKESHFIVALKVLFKSQIEKEGLEHQLRREIEIQAHLQHPNILRLYNYFHDARRVYLILEYAPRGELYKELQKSEKLDEQRTATIIEELADALTYCHDKKVIHRDIKPENLLLGFRGEVKIADFGWSVHTPSLRRKTMCGTLDYLPPEMIEGRTYDEKVDLWCIGVLCYELLVGYPPFESASHSETYRRILKVDVRFPLSMPLGARDLISRLLRYQPLERLPLAQILKHPWVQAHSRRVLPPCAQMAS
modifications: 35S-methionine label
